Laboratory results reported in patent US20260284208A1, “SYSTEM” (Oxford University Innovation Limited, priority 2023, published 2026).
The source gives many values for each of these; only a part stands here.

Test system: library of 8,380 IKZF3 degrons (ZF-eGFP/mCherry reporter) in Jurkat cells
Assay: Pooled library screen (FACS, NGS, limma voom LogFC of positive vs negative read counts)
Assay type: cell-based, human
Method: A library of 8,380 IKZF3 degrons was cloned into pLVX-Sprout to create the eGFP/mCherry protein degradation reporter plasmid pool. A lentivirus pool was then generated using the Lenti-X lentiviral vector production method.
Jurkat cells were transduced at a multiplicity of infection of <0.3 with the lentivirus vector library in order to maximise the number of cells with a single integration. Transductions were carried out in 6 well TC-treated cell culture dishes (Falcon) with 3×10^6 cells per well. Cells were incubated for 2 days at 37° C. and 5% CO2 before the supernatant was removed and replaced with fresh media. 6 days post-transduction, mCherry+ cells were isolated via FACS using the FACS Aria Fusion (BD) in a buffer containing PBS (Gibco), 2 mM EDTA (Gibco), 25 mM HEPES (Sigma) and 1% BSA (Sigma). 8 days later, cells were treated with DMSO or a thalidomide analog for 18 hours at 37° C. and 5% CO2. mCherry+GFPlow and NOT(mCherry+GFPlow) cells were sorted by FACS using the FACS Aria Fusion (BD). DMSO treated cells were used to set the mCherry+GFPlow gate and dead cells were excluded from sorting by staining cells with 1 μg/mL DAPI (ThermoFisher). gDNA was isolated using the Maxwell RSC 48 (Promega). gDNA from cells that were unsorted and untreated were also isolated to determine the library representation on the day of compound treatment. Throughout the screen >600× coverage of the library was maintained. 3 biological replicates were carried out with a new transduction taking place each time.
A two-step PCR was used where the first PCR (PCR1) amplified the integrated degron sequence from gDNA and the second PCR (PCR2) added Illumina adaptors and barcodes to permit multiplexing. See Supp F for PCR1 and PCR2 primers. Q5 Hot Start High-Fidelity 2× Master Mix (New England Biolabs) was used for both PCRs. Sufficient gDNA was amplified in PCR1 in order to maintain >600× coverage and amplicons were purified using solid phase reversible immobilization (SPRI) beads (Beckman Coulter). Purified PCR1 products were analysed on the Tapestation 4200 (Agilent) to confirm purity prior to proceeding to PCR2. Sufficient PCR1 product was amplified in PCR2 in order to maintain >600× coverage and amplicons were run on a 2% agarose TAE gel. Target bands were excised and purified using the NucleoSpin Gel and PCR Clean-up Kit (Machery Nagel). Amplicons were analysed on the Tapestation 4200 and quantified using Qubit dsDNA HS kit (ThermoFisher). PCR products were pooled and sequenced as paired-reads on the NovaSeq (Illumina) using a SP2 200 cycles kit (Illumina).
Count distributions, percentage of read mapping, library coverage and replicate correlation per sample were assessed for QC purposes.
To carry out the library screen, we used the same plasmid construct as in our earlier flow cytometry assays, but pooling all 8,380 mutants together into one Jurkat population, ensuring a copy number of one plasmid per cell (FIG. 4B). […] These GFP-negative cells were then separated from the remaining GFP-positive population using fluorescence activated cell sorting (FACS). These two populations were then sequenced and the relative abundance of every mutant in both populations compared to provide a log FC value for each mutant sequence. This value indicated how frequently a sequence is observed in the GFP-negative population relative to the GFP-positive population, and therefore how effective a degron it is for that particular IMID compound.

## O=C1CCC(N2C(=O)c3ccc(N4CCOCC4)cc3C2=O)C(=O)N1 (stereo not drawn) [B03]
Degron-ID 3000, SEQ ID NO 4258, 46F_47Q_49N_50I_52G_53A_54A_55F_67L_
  B03_logFC: 2.278
Degron-ID 3007, SEQ ID NO 4377, 46F_47Q_49N_50I_52G_53A_54I_55F_67L_
  B03_logFC: 2.073
Degron-ID 3012, SEQ ID NO 3765, 46F_47Q_49N_50I_52G_53A_54P_55F_67L_
  B03_logFC: 3.09
Degron-ID 3017, SEQ ID NO 4430, 46F_47Q_49N_50I_52G_53A_54V_55F_67L_
  B03_logFC: 2.011
Degron-ID 3052, SEQ ID NO 4428, 46F_47Q_49N_50V_52G_53A_54P_55F_67L_
  B03_logFC: 2.012
Degron-ID 3060, SEQ ID NO 3746, 46F_47Q_49P_50I_52G_53A_54A_55F_67L_
  B03_logFC: 3.129
Degron-ID 3061, SEQ ID NO 3774, 46F_47Q_49P_50I_52G_53A_54C_55F_67L_
  B03_logFC: 3.057
Degron-ID 3065, SEQ ID NO 4392, 46F_47Q_49P_50I_52G_53A_54G_55F_67L_
  B03_logFC: 2.05
Degron-ID 3067, SEQ ID NO 3684, 46F_47Q_49P_50I_52G_53A_54I_55F_67L_
  B03_logFC: 3.259
Degron-ID 3068, SEQ ID NO 3803, 46F_47Q_49P_50I_52G_53A_54K_55F_67L_
  B03_logFC: 3.001
Degron-ID 3071, SEQ ID NO 4318, 46F_47Q_49P_50I_52G_53A_54N_55F_67L_
  B03_logFC: 2.179
Degron-ID 3074, SEQ ID NO 4390, 46F_47Q_49P_50I_52G_53A_54R_55F_67L_
  B03_logFC: 2.053
Degron-ID 3075, SEQ ID NO 3880, 46F_47Q_49P_50I_52G_53A_54S_55F_67L
  B03_logFC: 2.884
Degron-ID 3077, SEQ ID NO 3730, 46F_47Q_49P_50I_52G_53A_54V_55F_67L_
  B03_logFC: 3.156
Degron-ID 3100, SEQ ID NO 3763, 46F_47Q_49P_50V_52G_53A_54A_55F_67L_
  B03_logFC: 3.102
Degron-ID 3101, SEQ ID NO 3944, 46F_47Q_49P_50V_52G_53A_54C_55F_67L
  B03_logFC: 2.768
Degron-ID 3105, SEQ ID NO 4412, 46F_47Q_49P_50V_52G_53A_54G_55F_67L_
  B03_logFC: 2.029
Degron-ID 3107, SEQ ID NO 3737, 46F_47Q_49P_50V_52G_53A_54I_55F_67L_
  B03_logFC: 3.148
Degron-ID 3108, SEQ ID NO 3883, 46F_47Q_49P_50V_52G_53A_54K_55F_67L
  B03_logFC: 2.877
Degron-ID 3110, SEQ ID NO 4272, 46F_47Q_49P_50V_52G_53A_54M_55F_67L_
  B03_logFC: 2.262
Degron-ID 3111, SEQ ID NO 4420, 46F_47Q_49P_50V_52G_53A_54N_55F_67L_
  B03_logFC: 2.018
Degron-ID 3112, SEQ ID NO 3654, 46F_47Q_49P_50V_52G_53A_54P_55F_67L_
  B03_logFC: 3.337
Degron-ID 3114, SEQ ID NO 4267, 46F_47Q_49P_50V_52G_53A_54R_55F_67L_
  B03_logFC: 2.266
Degron-ID 3116, SEQ ID NO 3873, 46F_47Q_49P_50V_52G_53A_54T_55F_67L
  B03_logFC: 2.891
Degron-ID 3117, SEQ ID NO 3761, 46F_47Q_49P_50V_52G_53A_54V_55F_67L_
  B03_logFC: 3.106
Degron-ID 3172, SEQ ID NO 3667, 46F_47R_49D_50V_52G_53A_54P_55F_67L_
  B03_logFC: 3.298
Degron-ID 3220, SEQ ID NO 4040, 46F_47R_49E_50V_52G_53A_54A_55F_67L
  B03_logFC: 2.621
Degron-ID 3225, SEQ ID NO 4415, 46F_47R_49E_50V_52G_53A_54G_55F_67L_
  B03_logFC: 2.025
Degron-ID 3292, SEQ ID NO 3826, 46F_47R_49N_50V_52G_53A_54P_55F_67L_
  B03_logFC: 2.959
Degron-ID 3300, SEQ ID NO 4269, 46F_47R_49P_50I_52G_53A_54A_55F_67L_
  B03_logFC: 2.263
Degron-ID 3332, SEQ ID NO 3866, 46F_47R_49P_50Q_52G_53A_54P_55F_67L
  B03_logFC: 2.895
Degron-ID 3360, SEQ ID NO 4310, 46F_47S_49D_50I_52G_53A_54A_55F_67L_
  B03_logFC: 2.191
Degron-ID 3374, SEQ ID NO 4246, 46F_47S_49D_50I_52G_53A_54R_55F_67L_
  B03_logFC: 2.302
Degron-ID 3420, SEQ ID NO 3837, 46F_47S_49E_50I_52G_53A_54A_55F_67L_
  B03_logFC: 2.948
Degron-ID 3434, SEQ ID NO 3868, 46F_47S_49E_50I_52G_53A_54R_55F_67L
  B03_logFC: 2.894
Degron-ID 3435, SEQ ID NO 3921, 46F_47S_49E_50I_52G_53A_545_55F_67L
  B03_logFC: 2.803
Degron-ID 3460, SEQ ID NO 3703, 46F_47S_49E_50V_52G_53A_54A_55F_67L_
  B03_logFC: 3.207
Degron-ID 3461, SEQ ID NO 4261, 46F_47S_49E_50V_52G_53A_54C_55F_67L_
  B03_logFC: 2.275
Degron-ID 3472, SEQ ID NO 4426, 46F_47S_49E_50V_52G_53A_54P_55F_67L_
  B03_logFC: 2.013
Degron-ID 3475, SEQ ID NO 3924, 46F_47S_49E_50V_52G_53A_54S_55F_67L
  B03_logFC: 2.799
Degron-ID 3480, SEQ ID NO 4282, 46F_47S_49N_50I_52G_53A_54A_55F_67L_
  B03_logFC: 2.246
Degron-ID 3492, SEQ ID NO 4273, 46F_47S_49N_50I_52G_53A_54P_55F_67L_
  B03_logFC: 2.26
